Measurements published in patent US7030236B2, “Antisense oligonucleotides tarageting folate receptor alpha, and the use thereof” (priority 2001, dated 2006).
Some of these results come from one statement about several compounds together.

System: αhFR
Assay: Immunoprecipitation of newly synthesized (35S-methionine labeled) αhFR protein in KB cells
Assay type: cell-based, human
Details: KB cells incubated with 50 μM unmodified oligonucleotide, 16 hrs; compared to sense oligonucleotide controls

**Q.** For “AS-6: antisense 21-mer DNA GCTCTTGCAGGTGTAGGAGGT, αhFR ORF 462–442, SEQ ID NO. 4; unmodified or phosphorothioated (antisense GCTCTTGCAGGTGTAGGAGGT; DNA, backbone and methylation of C not given here; phosphorothioate modified, described as end-modified)”, which “reduction of levels of newly synthesized αhFR” value is on record?
**A.** ≤ 60%
